Test results taken from the supplement of paper PMC10849652.
The list shows a part of the results.

Amino acid sequences for entries named in this document (tags omitted). A change or cut given only in a name is not applied to a line headed by its entry.
UniProt Q8NBJ7: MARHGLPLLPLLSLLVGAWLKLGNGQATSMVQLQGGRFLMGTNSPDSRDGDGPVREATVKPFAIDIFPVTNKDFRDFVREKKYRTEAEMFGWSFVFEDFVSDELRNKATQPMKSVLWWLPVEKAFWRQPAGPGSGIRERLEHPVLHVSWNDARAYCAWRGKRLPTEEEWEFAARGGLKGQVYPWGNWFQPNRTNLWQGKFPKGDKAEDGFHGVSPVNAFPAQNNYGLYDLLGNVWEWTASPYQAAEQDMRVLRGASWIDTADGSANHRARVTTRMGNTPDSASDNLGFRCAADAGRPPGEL
UniProt Q9Y2Z0: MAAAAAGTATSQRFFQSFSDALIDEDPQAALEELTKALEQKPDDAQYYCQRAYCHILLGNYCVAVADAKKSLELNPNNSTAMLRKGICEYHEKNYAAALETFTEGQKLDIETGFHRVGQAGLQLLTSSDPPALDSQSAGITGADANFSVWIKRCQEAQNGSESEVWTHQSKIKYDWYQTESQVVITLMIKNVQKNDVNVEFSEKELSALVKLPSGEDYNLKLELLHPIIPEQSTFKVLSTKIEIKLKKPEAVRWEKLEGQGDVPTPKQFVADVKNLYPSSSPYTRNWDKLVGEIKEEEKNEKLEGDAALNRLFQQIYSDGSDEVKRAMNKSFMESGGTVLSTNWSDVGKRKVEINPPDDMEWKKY
UniProt Q5VSL9: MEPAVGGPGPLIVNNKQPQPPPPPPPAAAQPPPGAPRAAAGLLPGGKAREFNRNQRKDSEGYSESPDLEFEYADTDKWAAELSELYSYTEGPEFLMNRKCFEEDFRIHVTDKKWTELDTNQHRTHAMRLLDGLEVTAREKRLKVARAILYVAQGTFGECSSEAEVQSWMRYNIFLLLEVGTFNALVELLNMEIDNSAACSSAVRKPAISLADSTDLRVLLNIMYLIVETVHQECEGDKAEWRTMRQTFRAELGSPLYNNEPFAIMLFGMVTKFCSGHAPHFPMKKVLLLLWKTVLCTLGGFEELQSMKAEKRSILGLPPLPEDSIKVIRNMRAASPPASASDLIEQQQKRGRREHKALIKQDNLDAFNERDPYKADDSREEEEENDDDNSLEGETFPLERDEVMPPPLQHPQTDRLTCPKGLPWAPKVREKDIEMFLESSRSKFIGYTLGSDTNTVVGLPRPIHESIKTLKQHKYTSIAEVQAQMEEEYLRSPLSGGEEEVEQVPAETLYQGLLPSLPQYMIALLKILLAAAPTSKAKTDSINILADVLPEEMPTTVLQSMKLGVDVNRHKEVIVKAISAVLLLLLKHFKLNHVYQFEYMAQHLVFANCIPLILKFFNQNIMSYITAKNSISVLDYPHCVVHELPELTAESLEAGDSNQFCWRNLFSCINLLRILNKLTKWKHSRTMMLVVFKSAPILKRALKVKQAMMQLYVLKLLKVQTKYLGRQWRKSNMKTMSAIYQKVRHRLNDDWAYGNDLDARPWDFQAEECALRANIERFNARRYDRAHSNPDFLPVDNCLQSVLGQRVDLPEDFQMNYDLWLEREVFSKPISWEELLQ
UniProt Q9UI15: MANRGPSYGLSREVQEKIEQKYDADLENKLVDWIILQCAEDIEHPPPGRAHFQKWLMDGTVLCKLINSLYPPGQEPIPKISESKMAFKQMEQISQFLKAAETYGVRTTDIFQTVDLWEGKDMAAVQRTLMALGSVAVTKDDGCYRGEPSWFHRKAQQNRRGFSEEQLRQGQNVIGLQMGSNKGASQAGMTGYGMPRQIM

Experiments:
Assay in all cases: log2 fold change, soluble protein after heating vs DMSO (PISA); higher = thermal stabilisation; K562 cells, 10 uM, 30 min; active = over 0.2 and 3.5 SD of the protein, either way, in both replicates (recomputed)
[1] = compound: C1=CC=C(C=C1)[C@H](COC2=CC3=C(C=C2)NC(=O)N3)NC(=O)C4=CC=CN(C4=O)CC5=CC(=C(C=C5)F)F
Procedure, shortened: (§1)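 K562 cells at 2×10^6 cells/mL were treated for 30 min with 10 μM compound, and aliquots were heated for 3 min over 48°C-58°C before pooling. Extraction used PBS with 0.5% NP-40 at 4°C, and soluble protein was the supernatant after 21,000xg for 90 min, measured by TMTpro 16plex LC-MS/MS with channel sums equalised. Thermal stability values, relative to control samples and from duplicates, are log2 fold changes.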

[2] = compound: CC1=C(SC2=C1C(=N[C@H](C3=NN=C(N32)C)CC(=O)N)C4=CC=C(C=C4)Cl)C
Procedure, shortened: as §1

[3] = compound: CC1=C2C(=CC=C1)N=C(N(C2=O)C3=CC=CC=C3C)CN4C=NC5=C(N=CN=C54)N
Procedure, shortened: as §1

[4] = compound: Cc1sc2c(c1C)C(c1ccc(Cl)cc1)=N[C@@H](CC(=O)OC(C)(C)C)c1nnc(C)n1-2
Procedure, shortened: as §1

[5] = compound: c1ccc([C@@H]2C[C@H]2NC2CCNCC2)cc1
Procedure, shortened: as §1

Measured: log2 fold change

SUMF2 (UniProt Q8NBJ7)
inactive: [1] 0 | [2] 0.002 | [3] -0.019 | [4] -0.004 | [5] -0.002

SUGT1 (UniProt Q9Y2Z0)
inactive: [1] -0.004 | [2] 0.022 | [3] 0.015 | [4] -0.01 | [5] 0.008

TAF9B (UniProt Q9HBM6)
inactive: [1] 0.036 | [2] -0.048 | [3] -0.009 | [4] 0.091 | [5] 0.161

STRIP1 (UniProt Q5VSL9)
inactive: [1] -0.064 | [2] 0 | [3] -0.002 | [4] 0.01 | [5] 0.001

SYNE2 isoform 2 (UniProt Q8WXH0)
inactive: [1] 0.064 | [2] 0.055 | [3] 0.209 | [4] -0.004 | [5] 0.096

TAGLN3 (UniProt Q9UI15)
inactive: [1] -0.107 | [2] -0.082 | [3] 0.088 | [4] -0.052 | [5] 0.15
